Publication PMC5341041
No constants are given. Whether binding was seen depends on the method and setting. Binding seen in cells or lysates may run through a third protein. These calls come from enrichment with a bait or labelling near it, and not all partners need be listed.

The chains behind the UniProt entries cited, without tags or fusion partners.
UniProt P53115: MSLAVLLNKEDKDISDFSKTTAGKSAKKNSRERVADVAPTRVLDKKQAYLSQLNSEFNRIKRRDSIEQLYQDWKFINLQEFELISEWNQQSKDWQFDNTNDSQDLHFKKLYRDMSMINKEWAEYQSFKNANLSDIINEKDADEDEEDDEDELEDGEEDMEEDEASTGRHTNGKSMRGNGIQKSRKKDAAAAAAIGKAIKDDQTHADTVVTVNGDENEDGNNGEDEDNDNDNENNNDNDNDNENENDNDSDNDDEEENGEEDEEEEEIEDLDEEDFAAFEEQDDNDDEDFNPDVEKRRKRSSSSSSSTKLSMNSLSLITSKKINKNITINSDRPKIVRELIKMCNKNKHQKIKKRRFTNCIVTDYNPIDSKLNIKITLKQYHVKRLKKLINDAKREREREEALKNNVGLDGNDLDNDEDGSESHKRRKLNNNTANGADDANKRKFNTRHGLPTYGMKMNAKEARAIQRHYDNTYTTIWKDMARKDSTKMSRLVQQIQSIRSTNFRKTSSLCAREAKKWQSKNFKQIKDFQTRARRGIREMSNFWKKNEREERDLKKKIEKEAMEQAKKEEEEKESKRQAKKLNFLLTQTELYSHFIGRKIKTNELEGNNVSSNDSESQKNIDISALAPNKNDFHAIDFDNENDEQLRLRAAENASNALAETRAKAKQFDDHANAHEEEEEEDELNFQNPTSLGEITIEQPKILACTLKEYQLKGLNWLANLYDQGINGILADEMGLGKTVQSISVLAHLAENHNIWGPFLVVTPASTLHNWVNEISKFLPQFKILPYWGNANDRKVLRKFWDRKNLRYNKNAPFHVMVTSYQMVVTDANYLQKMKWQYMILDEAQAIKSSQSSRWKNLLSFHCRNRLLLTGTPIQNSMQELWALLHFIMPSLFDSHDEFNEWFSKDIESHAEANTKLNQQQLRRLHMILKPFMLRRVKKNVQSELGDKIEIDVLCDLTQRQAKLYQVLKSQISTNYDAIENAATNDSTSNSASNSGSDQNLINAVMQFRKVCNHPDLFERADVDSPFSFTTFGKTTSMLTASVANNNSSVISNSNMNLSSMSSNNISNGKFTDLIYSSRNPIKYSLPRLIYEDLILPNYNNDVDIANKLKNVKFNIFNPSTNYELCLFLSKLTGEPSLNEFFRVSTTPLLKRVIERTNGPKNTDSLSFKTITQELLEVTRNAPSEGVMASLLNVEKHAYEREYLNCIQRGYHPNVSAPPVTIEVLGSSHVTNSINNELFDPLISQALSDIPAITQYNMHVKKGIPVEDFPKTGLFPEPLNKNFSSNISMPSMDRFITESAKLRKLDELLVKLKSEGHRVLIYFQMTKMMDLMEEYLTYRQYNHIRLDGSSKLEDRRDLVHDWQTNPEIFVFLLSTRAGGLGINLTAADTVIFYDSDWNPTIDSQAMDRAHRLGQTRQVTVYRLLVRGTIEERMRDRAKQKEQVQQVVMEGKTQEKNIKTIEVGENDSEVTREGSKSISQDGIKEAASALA
UniProt P35189: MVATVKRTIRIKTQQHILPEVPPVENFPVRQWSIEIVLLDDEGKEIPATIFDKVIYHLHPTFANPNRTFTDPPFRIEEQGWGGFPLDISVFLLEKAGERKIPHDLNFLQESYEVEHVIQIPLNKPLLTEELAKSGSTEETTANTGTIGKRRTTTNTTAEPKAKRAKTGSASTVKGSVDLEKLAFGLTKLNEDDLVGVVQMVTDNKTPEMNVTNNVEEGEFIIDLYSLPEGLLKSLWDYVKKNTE
UniProt Q12464: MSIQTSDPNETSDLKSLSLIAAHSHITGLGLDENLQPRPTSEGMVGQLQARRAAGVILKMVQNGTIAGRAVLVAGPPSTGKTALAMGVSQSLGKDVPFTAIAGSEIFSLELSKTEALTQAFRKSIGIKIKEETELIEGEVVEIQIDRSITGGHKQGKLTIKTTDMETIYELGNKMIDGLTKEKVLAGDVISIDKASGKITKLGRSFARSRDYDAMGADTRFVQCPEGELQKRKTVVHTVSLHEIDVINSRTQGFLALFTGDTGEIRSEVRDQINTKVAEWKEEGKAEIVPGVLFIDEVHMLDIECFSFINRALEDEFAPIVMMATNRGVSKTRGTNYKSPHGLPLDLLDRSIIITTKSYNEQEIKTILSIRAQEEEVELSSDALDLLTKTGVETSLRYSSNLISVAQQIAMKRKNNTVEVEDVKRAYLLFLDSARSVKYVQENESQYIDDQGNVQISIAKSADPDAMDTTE
UniProt Q03940: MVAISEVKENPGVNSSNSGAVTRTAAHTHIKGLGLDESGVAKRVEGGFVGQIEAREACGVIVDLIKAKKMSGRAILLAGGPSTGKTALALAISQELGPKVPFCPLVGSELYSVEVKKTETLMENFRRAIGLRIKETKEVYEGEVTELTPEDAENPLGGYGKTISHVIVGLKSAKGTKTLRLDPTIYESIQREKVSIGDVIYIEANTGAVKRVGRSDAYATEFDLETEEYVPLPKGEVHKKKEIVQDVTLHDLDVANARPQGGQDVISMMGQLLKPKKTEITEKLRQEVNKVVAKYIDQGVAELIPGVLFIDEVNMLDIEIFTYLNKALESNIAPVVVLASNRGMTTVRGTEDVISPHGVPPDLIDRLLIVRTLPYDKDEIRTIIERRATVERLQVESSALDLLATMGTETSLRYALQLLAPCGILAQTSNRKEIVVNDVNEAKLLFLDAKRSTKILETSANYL

Key:
Test in all cases: affinity purification with mass spectrometry; TAP purification of TAP-tagged INO80 subunits from wild-type S. cerevisiae grown in YPD; MudPIT, spectral counts, dNSAF
Ies6 (S. cerevisiae) = molecular target: T1, Ies6 (S. cerevisiae) (UniProt P32617)
T1 sequence: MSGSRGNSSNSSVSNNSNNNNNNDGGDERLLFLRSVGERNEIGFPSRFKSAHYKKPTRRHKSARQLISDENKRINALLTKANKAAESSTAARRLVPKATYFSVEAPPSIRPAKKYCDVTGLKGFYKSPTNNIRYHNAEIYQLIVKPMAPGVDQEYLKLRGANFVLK

Nhp10 (S. cerevisiae) = molecular target: T2, Nhp10 (S. cerevisiae) (UniProt Q03435)
T2 sequence: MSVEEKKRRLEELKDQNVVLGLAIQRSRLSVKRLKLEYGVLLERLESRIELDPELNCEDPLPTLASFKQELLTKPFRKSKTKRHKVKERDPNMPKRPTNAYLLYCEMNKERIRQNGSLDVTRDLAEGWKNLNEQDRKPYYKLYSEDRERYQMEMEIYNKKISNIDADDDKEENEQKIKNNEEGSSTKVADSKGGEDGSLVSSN

Ies3 (S. cerevisiae) = molecular target: T3, Ies3 (S. cerevisiae) (UniProt Q12345)
T3 sequence: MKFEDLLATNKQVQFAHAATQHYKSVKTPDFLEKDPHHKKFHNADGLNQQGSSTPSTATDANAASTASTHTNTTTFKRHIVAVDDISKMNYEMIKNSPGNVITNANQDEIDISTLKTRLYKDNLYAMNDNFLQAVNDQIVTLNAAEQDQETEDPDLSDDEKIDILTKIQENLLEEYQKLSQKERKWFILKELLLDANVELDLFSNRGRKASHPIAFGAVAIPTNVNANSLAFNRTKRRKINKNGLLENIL

Ies5 (S. cerevisiae) = molecular target: T4, Ies5 (S. cerevisiae) (UniProt P40060)
T4 sequence: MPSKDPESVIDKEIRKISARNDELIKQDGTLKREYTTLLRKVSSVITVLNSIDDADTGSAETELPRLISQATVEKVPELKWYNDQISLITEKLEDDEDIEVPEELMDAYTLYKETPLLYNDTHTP

Ies1 (S. cerevisiae) = molecular target: T5, Ies1 (S. cerevisiae) (UniProt P43579)
T5 sequence: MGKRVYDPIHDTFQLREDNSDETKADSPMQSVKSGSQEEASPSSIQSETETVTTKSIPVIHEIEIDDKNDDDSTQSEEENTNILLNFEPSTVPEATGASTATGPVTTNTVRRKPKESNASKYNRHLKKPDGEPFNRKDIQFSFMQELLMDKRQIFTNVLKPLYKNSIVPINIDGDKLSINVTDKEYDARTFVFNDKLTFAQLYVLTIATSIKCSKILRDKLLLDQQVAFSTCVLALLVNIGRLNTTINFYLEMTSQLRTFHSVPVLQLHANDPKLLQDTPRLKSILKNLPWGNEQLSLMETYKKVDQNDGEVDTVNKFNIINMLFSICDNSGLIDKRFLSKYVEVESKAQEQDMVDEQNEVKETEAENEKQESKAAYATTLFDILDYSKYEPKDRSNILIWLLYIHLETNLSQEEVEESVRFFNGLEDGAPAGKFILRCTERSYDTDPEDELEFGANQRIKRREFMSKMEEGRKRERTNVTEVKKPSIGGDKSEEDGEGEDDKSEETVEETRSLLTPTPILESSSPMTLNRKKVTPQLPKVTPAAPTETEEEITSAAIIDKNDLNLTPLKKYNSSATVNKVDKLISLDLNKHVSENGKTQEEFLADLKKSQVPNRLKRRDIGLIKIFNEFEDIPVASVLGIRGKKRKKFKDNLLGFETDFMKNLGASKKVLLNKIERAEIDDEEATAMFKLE

Ino80 (S. cerevisiae) = Ino80 (S. cerevisiae) (UniProt P53115)
Arp8 (S. cerevisiae) = molecular target: T6, Arp8 (S. cerevisiae) (UniProt Q12386)
T6 sequence: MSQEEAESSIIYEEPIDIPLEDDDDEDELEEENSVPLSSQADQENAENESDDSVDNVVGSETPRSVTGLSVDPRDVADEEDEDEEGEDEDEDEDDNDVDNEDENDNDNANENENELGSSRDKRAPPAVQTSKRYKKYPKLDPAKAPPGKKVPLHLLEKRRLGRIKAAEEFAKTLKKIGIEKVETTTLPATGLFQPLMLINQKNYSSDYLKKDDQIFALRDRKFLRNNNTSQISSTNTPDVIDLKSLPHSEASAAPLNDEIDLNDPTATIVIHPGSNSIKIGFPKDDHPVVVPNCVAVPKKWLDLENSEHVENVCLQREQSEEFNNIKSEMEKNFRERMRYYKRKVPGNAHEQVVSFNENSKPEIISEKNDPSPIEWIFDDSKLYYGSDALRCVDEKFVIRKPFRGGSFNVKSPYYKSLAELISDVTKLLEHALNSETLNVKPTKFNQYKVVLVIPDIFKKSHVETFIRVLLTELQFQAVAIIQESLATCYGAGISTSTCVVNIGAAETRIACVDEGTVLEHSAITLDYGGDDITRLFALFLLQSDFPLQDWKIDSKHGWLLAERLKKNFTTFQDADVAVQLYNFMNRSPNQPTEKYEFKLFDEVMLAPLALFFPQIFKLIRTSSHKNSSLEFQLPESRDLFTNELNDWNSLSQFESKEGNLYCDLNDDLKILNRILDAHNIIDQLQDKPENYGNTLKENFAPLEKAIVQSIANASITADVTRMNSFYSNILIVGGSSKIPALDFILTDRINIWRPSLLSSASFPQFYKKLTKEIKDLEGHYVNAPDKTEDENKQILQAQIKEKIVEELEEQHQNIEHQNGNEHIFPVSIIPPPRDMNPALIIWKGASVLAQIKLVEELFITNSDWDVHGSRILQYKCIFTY

Ies2 (S. cerevisiae) = molecular target: T7, Ies2 (S. cerevisiae) (UniProt P40154)
T7 sequence: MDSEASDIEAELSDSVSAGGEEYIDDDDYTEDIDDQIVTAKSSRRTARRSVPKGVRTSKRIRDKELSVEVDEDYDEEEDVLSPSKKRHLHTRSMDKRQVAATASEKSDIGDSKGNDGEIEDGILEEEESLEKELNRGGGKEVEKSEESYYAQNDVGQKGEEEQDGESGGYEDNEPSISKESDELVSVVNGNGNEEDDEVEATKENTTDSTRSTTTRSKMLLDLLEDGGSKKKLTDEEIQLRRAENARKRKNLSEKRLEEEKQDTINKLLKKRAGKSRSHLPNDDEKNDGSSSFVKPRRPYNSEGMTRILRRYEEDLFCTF

Measured: binding

Taf14 (from UniProt P35189 1-244)
binds: all assays above

Rvb2 (from UniProt Q12464 1-471)
not listed: Ies6 (S. cerevisiae) | Ino80 (S. cerevisiae)
binds: all other assays above

Rvb1 (from UniProt Q03940 1-463)
not listed: Ies6 (S. cerevisiae) | Ino80 (S. cerevisiae)
binds: all other assays above

B1: Ies3 (protein, UniProt Q12345 1-250)
chain: T3 sequence
not listed: Ies3 (S. cerevisiae) | Ies1 (S. cerevisiae)
binds: all other assays above

B2: Ies2 (protein, UniProt P40154 1-320)
chain: T7 sequence
not listed: Ino80 (S. cerevisiae) | Ies2 (S. cerevisiae)
binds: all other assays above

B3: Ies5 (protein, UniProt P40060 1-125)
chain: T4 sequence
not listed: Ies5 (S. cerevisiae) | Ies1 (S. cerevisiae)
binds: all other assays above

B4: Fba1 (protein, UniProt P14540 1-359)
chain: MGVEQILKRKTGVIVGEDVHNLFTYAKEHKFAIPAINVTSSSTAVAALEAARDSKSPIILQTSNGGAAYFAGKGISNEGQNASIKGAIAAAHYIRSIAPAYGIPVVLHSDHCAKKLLPWFDGMLEADEAYFKEHGEPLFSSHMLDLSEETDEENISTCVKYFKRMAAMDQWLEMEIGITGGEEDGVNNENADKEDLYTKPEQVYNVYKALHPISPNFSIAAAFGNCHGLYAGDIALRPEILAEHQKYTREQVGCKEEKPLFLVFHGGSGSTVQEFHTGIDNGVVKVNLDTDCQYAYLTGIRDYVLNKKDYIMSPVGNPEGPEKPNKKFFDPRVWVREGEKTMGAKITKSLETFRTTNTL
binds: Ino80 (S. cerevisiae)

B5: Nhp10 (protein, UniProt Q03435 1-203)
chain: T2 sequence
not listed: Nhp10 (S. cerevisiae) | Ies1 (S. cerevisiae)
binds: all other assays above

B6: Ies1 (protein, UniProt P43579 1-692)
chain: T5 sequence
binds: Ies6 (S. cerevisiae) | Ino80 (S. cerevisiae) | Arp8 (S. cerevisiae) | Ies2 (S. cerevisiae)
